According to patent publication US20040175770A1:
Results are given in words; binding and its absence hold for the method and conditions named. For some of these results: Binding seen in cells or lysates may run through a third protein. Some results given as binding are weak or reduced against the parent protein; the word gives no strength. For some of these results: Where a sequence is shown, tags or fusion partners need not be part of it.

By UniProt entry, the sequences of proteins in these tests, tags left out. Where a name states a change or a piece, a line headed by the entry shows the natural chain unless it says otherwise. Residues count along the entry.
UniProt P25054: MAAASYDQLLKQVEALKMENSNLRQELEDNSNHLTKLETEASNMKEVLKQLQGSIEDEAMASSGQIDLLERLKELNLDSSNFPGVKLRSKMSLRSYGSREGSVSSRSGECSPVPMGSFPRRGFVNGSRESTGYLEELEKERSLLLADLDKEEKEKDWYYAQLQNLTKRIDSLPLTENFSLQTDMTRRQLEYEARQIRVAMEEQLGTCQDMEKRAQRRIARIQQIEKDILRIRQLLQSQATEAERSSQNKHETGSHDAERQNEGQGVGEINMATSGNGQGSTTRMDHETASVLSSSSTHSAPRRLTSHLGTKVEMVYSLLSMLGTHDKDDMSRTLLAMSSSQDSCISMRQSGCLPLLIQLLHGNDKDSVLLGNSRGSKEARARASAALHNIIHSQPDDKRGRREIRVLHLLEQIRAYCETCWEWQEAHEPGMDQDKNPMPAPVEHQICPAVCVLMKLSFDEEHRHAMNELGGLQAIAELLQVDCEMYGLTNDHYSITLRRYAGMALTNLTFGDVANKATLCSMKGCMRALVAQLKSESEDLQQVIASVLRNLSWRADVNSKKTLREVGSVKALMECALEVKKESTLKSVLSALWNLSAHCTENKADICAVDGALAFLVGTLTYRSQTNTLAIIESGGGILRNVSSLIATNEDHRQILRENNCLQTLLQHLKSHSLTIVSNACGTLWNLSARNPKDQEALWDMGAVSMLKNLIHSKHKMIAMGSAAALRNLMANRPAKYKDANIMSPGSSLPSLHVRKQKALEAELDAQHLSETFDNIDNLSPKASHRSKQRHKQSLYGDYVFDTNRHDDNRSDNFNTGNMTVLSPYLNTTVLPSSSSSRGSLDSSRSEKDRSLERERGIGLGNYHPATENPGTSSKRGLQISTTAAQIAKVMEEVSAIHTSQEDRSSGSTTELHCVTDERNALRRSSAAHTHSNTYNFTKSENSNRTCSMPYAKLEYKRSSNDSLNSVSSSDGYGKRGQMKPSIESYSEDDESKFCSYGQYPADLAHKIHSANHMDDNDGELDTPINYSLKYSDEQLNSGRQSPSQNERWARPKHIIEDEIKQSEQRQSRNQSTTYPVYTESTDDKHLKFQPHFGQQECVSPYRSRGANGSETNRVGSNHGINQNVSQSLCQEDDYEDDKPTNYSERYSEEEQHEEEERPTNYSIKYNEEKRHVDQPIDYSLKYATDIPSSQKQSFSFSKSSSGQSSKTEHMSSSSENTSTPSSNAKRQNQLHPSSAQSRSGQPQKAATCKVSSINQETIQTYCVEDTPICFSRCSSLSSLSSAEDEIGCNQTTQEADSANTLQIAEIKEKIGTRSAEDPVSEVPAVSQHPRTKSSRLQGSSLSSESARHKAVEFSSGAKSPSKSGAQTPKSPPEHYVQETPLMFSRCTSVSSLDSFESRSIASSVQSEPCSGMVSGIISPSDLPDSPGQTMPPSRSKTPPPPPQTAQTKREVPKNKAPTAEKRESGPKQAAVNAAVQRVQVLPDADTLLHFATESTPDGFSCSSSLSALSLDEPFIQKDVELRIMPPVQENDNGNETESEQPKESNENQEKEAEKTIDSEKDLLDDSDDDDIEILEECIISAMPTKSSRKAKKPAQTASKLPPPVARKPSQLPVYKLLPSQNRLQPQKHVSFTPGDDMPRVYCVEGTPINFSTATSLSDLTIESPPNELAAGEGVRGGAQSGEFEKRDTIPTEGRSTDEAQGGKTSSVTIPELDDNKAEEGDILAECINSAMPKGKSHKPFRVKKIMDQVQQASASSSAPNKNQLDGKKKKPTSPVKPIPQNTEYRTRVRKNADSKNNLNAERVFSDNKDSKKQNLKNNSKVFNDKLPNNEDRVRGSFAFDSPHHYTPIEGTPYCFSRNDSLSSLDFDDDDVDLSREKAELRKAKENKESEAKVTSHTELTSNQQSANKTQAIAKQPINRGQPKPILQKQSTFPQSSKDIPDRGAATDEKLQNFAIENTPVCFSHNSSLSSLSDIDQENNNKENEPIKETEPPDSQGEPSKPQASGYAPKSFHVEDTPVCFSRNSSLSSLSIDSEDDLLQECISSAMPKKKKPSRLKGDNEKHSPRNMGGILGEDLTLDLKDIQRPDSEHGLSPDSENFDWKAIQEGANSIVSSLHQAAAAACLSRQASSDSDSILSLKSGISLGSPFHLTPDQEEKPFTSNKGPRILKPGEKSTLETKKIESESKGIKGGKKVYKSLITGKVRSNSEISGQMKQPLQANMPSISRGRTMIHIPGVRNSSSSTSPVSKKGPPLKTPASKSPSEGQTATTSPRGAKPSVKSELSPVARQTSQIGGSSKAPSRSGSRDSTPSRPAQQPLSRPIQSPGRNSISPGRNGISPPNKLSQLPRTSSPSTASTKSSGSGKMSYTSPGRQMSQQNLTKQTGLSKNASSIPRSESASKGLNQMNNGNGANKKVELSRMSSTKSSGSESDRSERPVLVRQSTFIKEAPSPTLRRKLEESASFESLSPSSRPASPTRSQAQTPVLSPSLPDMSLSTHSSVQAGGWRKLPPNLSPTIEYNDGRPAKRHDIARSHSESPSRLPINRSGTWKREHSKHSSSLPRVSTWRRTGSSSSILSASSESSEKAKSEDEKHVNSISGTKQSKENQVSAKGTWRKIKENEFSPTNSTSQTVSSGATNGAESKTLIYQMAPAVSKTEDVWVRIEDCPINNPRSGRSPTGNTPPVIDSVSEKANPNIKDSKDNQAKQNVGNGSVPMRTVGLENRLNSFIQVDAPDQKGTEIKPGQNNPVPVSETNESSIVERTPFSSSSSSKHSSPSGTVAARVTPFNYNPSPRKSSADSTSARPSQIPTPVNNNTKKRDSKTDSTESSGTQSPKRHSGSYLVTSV
endogenous pAPC (APC protein, 2843 amino acids): residues 2-2843 of P25054
carboxy-terminal 155 amino acids of pAPC: residues 2689-2843 of P25054

Experiments:
[1] = target: GST-pAPC fusion protein (pAPC a.a. 2543-2843) [GST: P08515]; test: GST pull-down, 35S-labeled in vitro translated protein (legend of FIG. 1D)
[2] = target: GST-pAPC fusion protein (pAPC a.a. 2688-2843) [GST: P08515]; test: as above
[3] = target: GST-pAPC fusion protein (pAPC a.a. 2543-2843) [GST: P08515]; test: GST pull-down, 35S-labeled in vitro translated protein
[4] = target: GST-pAPC fusion protein (pAPC a.a. 2688-2843) [GST: P08515]; test: as above
[5] = target: carboxy-terminal 155 amino acids of pAPC (UniProt P25054); test: yeast two-hybrid cDNA library screening
[6] = target: endogenous pAPC (APC protein, 2843 amino acids) (UniProt P25054); test: co-immunoprecipitation from 293T whole cell extract with anti-pAPC Ab-5, anti-Myc immunoblot
[7] = target: endogenous pAPC (APC protein, 2843 amino acids) (UniProt P25054); test: co-immunoprecipitation from 293T whole cell extract, anti-Myc immunoblot (legend of FIG. 1E)

binding [1] | binding [2] | binding [3] | binding [4] | binding [5] | binding [6] | binding [7] | Binder
binds | binds | binds | binds | binds |  |  | Siah-1 (full-length, a.a. 1-298) (protein, human, UniProt Q8IUQ4 1-282, looked up, 35S-labeled (in vitro translated) in the GST pull-down) MSRQTATALPTGTSKCPPSQRVPALTGTTASNNDLASLFECPVCFDYVLPPILQCQSGHLVCSNCRPKLTCCPTCRGPLGSIRNLAMEKVANSVLFPCKYASSGCEITLPHTEKADHEELCEFRPYSCPCPGASCKWQGSLDAVMPHLMHQHKSITTLQGEDIVFLATDINLPGAVDWVMMQSCFGFHFMLVLEKQEKYDGHQQFFAIVQLIGTRKQAENFAYRLELNGHRRRLTWEATPRSIHEGIATAIMNSDCLVFDTSIAQLFAENGNLGINVTISMC
 |  |  |  |  | binds | binds | Myc epitope-tagged Siah-1 (protein, human, UniProt Q8IUQ4 1-282, looked up, not shown: small tags and cut ends) MSRQTATALPTGTSKCPPSQRVPALTGTTASNNDLASLFECPVCFDYVLPPILQCQSGHLVCSNCRPKLTCCPTCRGPLGSIRNLAMEKVANSVLFPCKYASSGCEITLPHTEKADHEELCEFRPYSCPCPGASCKWQGSLDAVMPHLMHQHKSITTLQGEDIVFLATDINLPGAVDWVMMQSCFGFHFMLVLEKQEKYDGHQQFFAIVQLIGTRKQAENFAYRLELNGHRRRLTWEATPRSIHEGIATAIMNSDCLVFDTSIAQLFAENGNLGINVTISMC
